Measurements published in paper PMC7819943, “Rice protein-binding microarrays: a tool to detect cis-acting elements near promoter regions in rice”.
The other results are listed elsewhere or left out.

Amino acid sequences for entries named in this document (tags omitted).
UniProt Q0JBA9, entry or part of it: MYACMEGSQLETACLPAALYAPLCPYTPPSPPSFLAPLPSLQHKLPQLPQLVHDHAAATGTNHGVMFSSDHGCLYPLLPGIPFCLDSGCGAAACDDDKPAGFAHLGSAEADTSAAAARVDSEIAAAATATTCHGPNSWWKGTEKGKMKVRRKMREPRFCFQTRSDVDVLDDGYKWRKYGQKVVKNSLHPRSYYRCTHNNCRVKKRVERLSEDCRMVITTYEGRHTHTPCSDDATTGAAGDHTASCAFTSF

Molecular target: OsWRKY34 (Oryza sativa, UniProt Q0JBA9 1-250)
Experiment: protein-binding microarray (RPBM); PBS, 2% BSA, 51.3 ng/ul salmon testes DNA, 50 uM zinc acetate, 200 nM TF, 25 C, 1 h; high values mean tight binding
Conditions: protein: recombinant; tags: N-terminal polyhistidine and DsRed monomer fusion (pET32a); label: CyDye5-dUTP incorporated in the synthesized complementary strand; 3' TTTTT single-stranded linker to array surface; dsDNA, one strand shown
Summary of the method: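 Transcription factors were made in E. coli BL21-CodonPlus as N-terminal fusions to a polyhistidine tag and DsRed, then purified on Ni–NTA. After primer extension with Cy5-dUTP and blocking with 2% BSA, a custom Agilent array was exposed for 1 h at 25 °C to 200 nM protein in PBS, 2% BSA, salmon testes DNA and 50 µM zinc acetate. Washed arrays were scanned on an Axon 4000B, and the binding signal is per-feature fluorescence intensity in arbitrary units.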

Sequence | binding signal
ATCCTCATGCATGTGCATGTATTACCTACTCATTCCCACCCGGAGTCACCTAGTGCAG | 8020 fluorescence intensity (a.u.)
TCAGATCTATTCAATCAGATGATGTTCTTGCCTGATATTCCGGAGTCACCTAGTGCAG | 8620 ± 442 fluorescence intensity (a.u.)
TTGTTCCATCACTTCCATACTTCGTGCTGGTTGTAAGATTCGGAGTCACCTAGTGCAG | 8660 fluorescence intensity (a.u.)
ACCAACTTAGGCCATATGAATACACCACACGAGTATACGACGGAGTCACCTAGTGCAG | 11000 fluorescence intensity (a.u.)
CCCACCCTGACGCTCTGTCTTCTCGCACTCGCGGCGCCGTCGGAGTCACCTAGTGCAG | 9380 fluorescence intensity (a.u.)
CAAGGACAAGGTGACTATGCTTGCACGACTTTCCATGCCACGGAGTCACCTAGTGCAG | 8060 fluorescence intensity (a.u.)
ATATATATATATATATATATATGGAATACATCATATCCAACGGAGTCACCTAGTGCAG | 13600 fluorescence intensity (a.u.)
AAGAGATTATCACTGTTGTTTTTTTCGTTTTCTTGCTTGCCGGAGTCACCTAGTGCAG | 9190 fluorescence intensity (a.u.)
CCATGGAATTTCAATTGCGTTTGACCATATATTTTATTATCGGAGTCACCTAGTGCAG | 9230 fluorescence intensity (a.u.)
TAATGGCTCACCTCGTTTTGCGTATCTTCCCAGTCTTCTCCGGAGTCACCTAGTGCAG | 11600 fluorescence intensity (a.u.)
GCGATCCCACCGATTCTTGCACACACACTAGCTACTTCTACGGAGTCACCTAGTGCAG | 9900 fluorescence intensity (a.u.)
TGTGGTGTGCTTGAGGTGCTTTTGAGTTTTAAATAGATTACGGAGTCACCTAGTGCAG | 8520 fluorescence intensity (a.u.)
CAAAACCCAACTGGCCAATCCGCGTGTTGATTACATTTCCCGGAGTCACCTAGTGCAG | 8180 fluorescence intensity (a.u.)
CACCTTTCAATTTTTTTCTTCATAATATTTTCCTCCTATCCGGAGTCACCTAGTGCAG | 9490 fluorescence intensity (a.u.)
TTTTCGTCTATTTTATTACTGTTGCTTGCCTACAATTCTCCGGAGTCACCTAGTGCAG | 13500 fluorescence intensity (a.u.)
TCCTCTCCTTTCCATTTTTTCCCCATCGCGCCCTACTTAACGGAGTCACCTAGTGCAG | 11800 fluorescence intensity (a.u.)
AAAGTTGGGCTTCTTCGGTTCTTCCCATATATGACAGATACGGAGTCACCTAGTGCAG | 8220 fluorescence intensity (a.u.)
CCGAACCTGTATAAAATTTTTGTCTCCATCTTCTTTTACTCGGAGTCACCTAGTGCAG | 8320 fluorescence intensity (a.u.)
CCACCCCTACCACCGCACAATCTCATCACTCTTCACCCGCCGGAGTCACCTAGTGCAG | 8080 fluorescence intensity (a.u.)
GAGTTGGTGTGGGTGGGATTGGCATTGTATCGTGAGAGAGCGGAGTCACCTAGTGCAG | 15200 fluorescence intensity (a.u.)
TCACCGCTCCGTTCCGTTCCGTTCCATTTCCGCCTTGCTCCGGAGTCACCTAGTGCAG | 9230 fluorescence intensity (a.u.)

Two entries drawn at random from the list so far, as already listed:
Sequence | binding signal
TCCTCTCCTTTCCATTTTTTCCCCATCGCGCCCTACTTAACGGAGTCACCTAGTGCAG | 11800 fluorescence intensity (a.u.)
ATATATATATATATATATATATGGAATACATCATATCCAACGGAGTCACCTAGTGCAG | 13600 fluorescence intensity (a.u.)

Next results.

Sequence | binding signal
TCAAAATCAGTCACAATAAATTCGGTTTTGATCCCGGTTTCGGAGTCACCTAGTGCAG | 9770 fluorescence intensity (a.u.)
CTCGGCCATTCACACCTCCTGCCGGTCTCCTCCGAACCCTCGGAGTCACCTAGTGCAG | 8790 fluorescence intensity (a.u.)
CAACGGCCGCAACAGCCTCCTTTCCTGTCGAATCTCGCAACGGAGTCACCTAGTGCAG | 8440 fluorescence intensity (a.u.)
CCTCTTTGTGCTCATCTAGTCATCTCTCGTTCTCTTTTTTCGGAGTCACCTAGTGCAG | 9970 fluorescence intensity (a.u.)
CGTCTTCATCCGCCGCTTCAAAAACCAGAGATAAACCTCGCGGAGTCACCTAGTGCAG | 8810 fluorescence intensity (a.u.)
TAAATATTTCTCAACTTTTTCTCAATTTTCTCGTCTTTTCCGGAGTCACCTAGTGCAG | 9620 fluorescence intensity (a.u.)
GATTTGGGTTGAAATATGATATGGGTTGGATTGGTTTGGACGGAGTCACCTAGTGCAG | 16100 fluorescence intensity (a.u.)
CAATTGCCTTTTTTTTTTGTCTCCGGCCCATGTGAGAACACGGAGTCACCTAGTGCAG | 8580 fluorescence intensity (a.u.)
CGAGGATATCGTATATATGGATCTCCTGCAGCCCAATCTCCGGAGTCACCTAGTGCAG | 8930 fluorescence intensity (a.u.)
ATATCATTCTTTGAGGGCTTCTTTGGTTGTATGCCACACACGGAGTCACCTAGTGCAG | 9660 fluorescence intensity (a.u.)
TTCTTTGTGTCTATCTCTCTCATCTAATTTCTACGTATTTCGGAGTCACCTAGTGCAG | 10900 fluorescence intensity (a.u.)
AAAAAATAGCCACACCACGCATCAACGTCTAATCCTGCTACGGAGTCACCTAGTGCAG | 8560 fluorescence intensity (a.u.)
GGCCTCCTTCATCACGCCCTGGATCTCACTGACTAAAAACCGGAGTCACCTAGTGCAG | 8030 fluorescence intensity (a.u.)
CACGGATCGCTGCCCCACTCCCAACCCATCTCCACCGTCCCGGAGTCACCTAGTGCAG | 8390 fluorescence intensity (a.u.)
GTAGTATTGTACTAATCTCTCACACTATTACAGGCTTACACGGAGTCACCTAGTGCAG | 8810 fluorescence intensity (a.u.)
GGCGAGGGGAGAAGAGAAGAGGTGGGTGAGGTGGGGTTTCCGGAGTCACCTAGTGCAG | 12800 fluorescence intensity (a.u.)
TCCTGCCACTTCACCACCGCACAGCGAGCTCGCCGCGGAGCGGAGTCACCTAGTGCAG | 8060 fluorescence intensity (a.u.)
GCTGTCGTTGAATTTTTGTTTGTTTTCTTGGCGTGTTGCACGGAGTCACCTAGTGCAG | 13300 fluorescence intensity (a.u.)
ACCCCTTTTCCCACTAGTACTTGCCGTGCCTTCCTCTCTCCGGAGTCACCTAGTGCAG | 10100 fluorescence intensity (a.u.)
GACACCATACTGATTAGTCTTTTCATGCATTGCAGTATTTCGGAGTCACCTAGTGCAG | 9360 fluorescence intensity (a.u.)
TCGACCTGTCCACTATGCTTTTTTCTTTGTCTCTGTCCGCCGGAGTCACCTAGTGCAG | 9630 fluorescence intensity (a.u.)
